Reference: article PMC7022529
No constants are given. Whether binding was seen depends on the method and setting. Binding seen in cells or lysates may run through a third protein. These calls come from enrichment with a bait or labelling near it, and not all partners need be listed.

Chains of the proteins cited; added tags and fusions are not shown.
UniProt P48431: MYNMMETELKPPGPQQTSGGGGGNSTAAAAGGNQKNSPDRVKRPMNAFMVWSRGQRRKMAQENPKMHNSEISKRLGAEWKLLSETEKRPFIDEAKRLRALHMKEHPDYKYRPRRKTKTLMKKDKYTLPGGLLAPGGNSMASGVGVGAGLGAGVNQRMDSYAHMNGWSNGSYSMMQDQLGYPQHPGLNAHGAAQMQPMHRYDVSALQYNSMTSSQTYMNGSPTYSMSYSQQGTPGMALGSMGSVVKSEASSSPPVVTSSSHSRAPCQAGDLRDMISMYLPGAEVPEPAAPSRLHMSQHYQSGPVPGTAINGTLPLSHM
UniProt Q01860: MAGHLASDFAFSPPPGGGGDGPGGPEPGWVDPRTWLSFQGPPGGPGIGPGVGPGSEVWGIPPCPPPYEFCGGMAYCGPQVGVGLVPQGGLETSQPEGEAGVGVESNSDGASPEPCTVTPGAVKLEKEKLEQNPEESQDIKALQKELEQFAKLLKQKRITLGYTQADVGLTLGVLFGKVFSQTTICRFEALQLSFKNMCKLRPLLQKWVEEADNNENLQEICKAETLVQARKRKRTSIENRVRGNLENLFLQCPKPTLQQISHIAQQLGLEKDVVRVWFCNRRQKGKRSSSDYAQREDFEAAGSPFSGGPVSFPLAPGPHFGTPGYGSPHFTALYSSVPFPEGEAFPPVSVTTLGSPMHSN

Target: BirA-Sox2 (UniProt P48431)
Test: proximity labelling; proximity-utilizing biotinylation (PUB): BAP fusion and BirA fusion coexpressed in HEK293T cells (six-well plates), biotin pulse 30 min; Western blot with streptavidin-HRP, anti-His-HRP for the total BAP fusion

binding: binds
Substance: BAP-Oct4 (from UniProt Q01860 1-360)
